Assay results published in patent US6486326B2, “iso-CBI and iso-CI analogs of CC-1065 duocarmycins” (The Scripps Research Institute, priority 1997, dated 2002).

Test system: calf thymus DNA
Experiment: Calf thymus DNA alkylation, quantitation of adenine N3 adduct
Type: biochemical
Settings: 4° C.
Method: This was addressed through a study of the alkylation of calf thymus DNA. Optimized conditions for the alkylation were established for (−)-44 on an analytical scale (100 μg of agent). For this purpose, the long-wavelength UV absorption of the agent and the adduct provided a useful quantitative measure of the adenine adduct, unreacted starting material and any side products (solvolysis or rearrangement), Table 3. Analytical HPLC analysis was used to confirm the identity of the products through correlation of retention times and UV spectral data with authentic materials. The preparative DNA alkylation reaction and subsequent isolation of (+)-66 was carried out under conditions determined to provide complete consumption of the agent in the presence of a large excess of DNA Thus, extraction (EtOAc) of the aqueous buffer solution containing calf thymus DNA following alkylation (4° C., 72 h, 150 bp) afforded no recovered (−)-44, and only a small amount (<5%) of the rearranged product 65. Conducting the reaction at 4° C. in the presence of a large excess of DNA precluded competitive solvolysis. Thermal treatment of the alkylated DNA in aqueous 10 mM sodium phosphate buffer (100° C., 30 min, pH 7.0) followed by EtOAc extraction provided 66 in 90-95% conversion, ≧95% purity (by HPLC). Repeating this thermal treatment provided little or no additional adduct. No trace of a competing guanine adduct could be detected. This high conversion to a single adduct established that 44 participates exclusively in the adenine N3 alkylation reaction under the conditions examined.

Compound	rearranged product 65 (72 h, 75 base-pair equiv, analytical scale, HPLC/UV) [%]	rearranged product 65 (72 h, 150 base-pair equiv, analytical scale, HPLC/UV) [%]	rearranged product 65 (72 h, 150 base-pair equiv, preparative scale) [%]	rearranged product 65 (120 h, 150 base-pair equiv, preparative scale) [%]	rearranged product 65 in EtOAc extract (72 h, 150 bp) [%]	unreacted / recovered 44 (72 h, 150 bp) [%]	unreacted / recovered 44 (72 h, 150 bp, listed as (−)-44)
COc1cc2cc(C(=O)N3CC4CC45C(=O)c4ccccc4C=C35)[nH]c2c(OC)c1OC (racemic) [compound 44, 2-[(5,6,7-Trimethoxyindol-2-yl)carbonyl]-1,2,9,9a-tetrahydrocyclopropa[c]benzo[f]indol-8-one]	<5	<5	<5	<5	–	–	–
COc1cc2cc(C(=O)N3CC4CC45C(=O)c4ccccc4C=C35)[nH]c2c(OC)c1OC (single isomer, unassigned; (-)) [(−)-iso-CBI-TMI, 2-[(5,6,7-Trimethoxyindol-2-yl)carbonyl]-1,2,9,9a-tetrahydrocyclopropa[c]benzo[f]indol-8-one]	–	–	–	–	< 5	0	no recovered
